Some compounds share one wording; it may come from a single statement.
How the values were obtained:
[1] = Evaluation of appearance of epoxy resin varnish dried on glass sheet; design: key: ◯: no agglomerates or good hue and appearance; Δ: a small number of agglomerates or moderate hue and appearance; X: a large number of agglomerates or bad hue and appearance; conditions: 30 parts by weight
[2] = Flame retardancy UL-94 vertical test, epoxy resin laminate sheet; conditions: epoxy laminate sheet 1.6 mm, 30 parts by weight per 100 parts epoxy resin
[3] = Evaluation of appearance of coated sheet cloth; design: key: ◯: no agglomerates or good hue and appearance; Δ: a small number of agglomerates or moderate hue and appearance; X: a large number of agglomerates or bad hue and appearance; conditions: coated polyester car sheet cloth
[4] = Evaluation of appearance of impact-resistant polystyrene molded plate; design: key: ◯: no agglomerates or good hue and appearance; Δ: a small number of agglomerates or moderate hue and appearance; X: a large number of agglomerates or bad hue and appearance; conditions: HIPS molded plate
[5] = Flame retardancy UL-94 vertical test, impact-resistant polystyrene; conditions: UL-94, 1.6 mm
[6] = 10 parts by weight per 100 parts HIPS

Compound	Evaluation of appearance [1]	Flame retardancy [2]	Evaluation of appearance [3]	Evaluation of appearance ([4]; 10 parts by weight)	Flame retardancy evaluation [5, 6]	Evaluation of appearance ([4]; 5 parts by weight)	Flame retardancy evaluation ([5]; 5 parts by weight per 100 parts HIPS)
O=P1(Cc2ccccc2)OCC2(CO1)COP(=O)(Cc1ccccc1)OC2 (single isomer, unassigned) [FR-1, 2,4,8,10-tetraoxa-3,9-diphosphaspiro[5.5]undecane,3,9-dibenzyl-3,9-dioxide]	◯	V-0 (When all the test samples self-extinguish within 10 seconds after the flame is removed, the total of ten burn times is no longer than 50 seconds, and samples do not drip flaming particles or these particles do not cause the ignition of cotton, flame retardancy is rated V-0)	◯	◯	V-2 (when all the test samples self-extinguish within 30 seconds after the flame is removed, the total of 10 burn times is no longer than 250 seconds, and the test samples drips flaming particles which cause the ignition of cotton, flame retardancy is rated V-2)		
O=P1(Cc2ccccc2)OCC2(CO1)COP(=O)(Cc1ccccc1)OC2 (single isomer, unassigned) [FR-5, 2,4,8,10-tetraoxa-3,9-diphosphaspiro[5.5]undecane, 3,9-dibenzyl-3,9-dioxide]	X	V-0 (When all the test samples self-extinguish within 10 seconds after the flame is removed, the total of ten burn times is no longer than 50 seconds, and samples do not drip flaming particles or these particles do not cause the ignition of cotton, flame retardancy is rated V-0)	X	Δ	V-2 (when all the test samples self-extinguish within 30 seconds after the flame is removed, the total of 10 burn times is no longer than 250 seconds, and the test samples drips flaming particles which cause the ignition of cotton, flame retardancy is rated V-2)		
O=P1(Cc2ccccc2)OCC2(CO1)COP(=O)(Cc1ccccc1)OC2 (single isomer, unassigned) [FR-6, 2,4,8,10-tetraoxa-3,9-diphosphaspiro[5.5]undecane,3,9-dibenzyl-3,9-dioxide]	Δ	V-1 (When all the test samples self-extinguish within 30 seconds after the flame is removed, the total of 10 burn times is no longer than 250 seconds, and the samples do not drip flaming particles or these particles do not cause the ignition of cotton, flame retardancy is rated V-1)	Δ	X	V-2 (when all the test samples self-extinguish within 30 seconds after the flame is removed, the total of 10 burn times is no longer than 250 seconds, and the test samples drips flaming particles which cause the ignition of cotton, flame retardancy is rated V-2)		
CC(c1ccccc1)P1(=O)OCC2(CO1)COP(=O)(C(C)c1ccccc1)OC2 (centres unmarked) [FR-2, 2,4,8,10-tetraoxa-3,9-diphosphaspiro[5.5]undecane,3,9-diα-methylbenzyl-3,9-dioxide]	◯	V-0 (When all the test samples self-extinguish within 10 seconds after the flame is removed, the total of ten burn times is no longer than 50 seconds, and samples do not drip flaming particles or these particles do not cause the ignition of cotton, flame retardancy is rated V-0)	◯	◯	V-2 (when all the test samples self-extinguish within 30 seconds after the flame is removed, the total of 10 burn times is no longer than 250 seconds, and the test samples drips flaming particles which cause the ignition of cotton, flame retardancy is rated V-2)		
O=P1(CCc2ccccc2)OCC2(CO1)COP(=O)(CCc1ccccc1)OC2 (centres unmarked) [FR-3, 2,4,8,10-tetraoxa-3,9-diphosphaspiro[5.5]undecane,3,9-di(2-phenylethyl)-3,9-dioxide]	◯	V-0 (When all the test samples self-extinguish within 10 seconds after the flame is removed, the total of ten burn times is no longer than 50 seconds, and samples do not drip flaming particles or these particles do not cause the ignition of cotton, flame retardancy is rated V-0)	◯	◯	V-2 (when all the test samples self-extinguish within 30 seconds after the flame is removed, the total of 10 burn times is no longer than 250 seconds, and the test samples drips flaming particles which cause the ignition of cotton, flame retardancy is rated V-2)		
O=P1(C(c2ccccc2)c2ccccc2)OCC2(CO1)COP(=O)(C(c1ccccc1)c1ccccc1)OC2 (centres unmarked) [FR-4, 2,4,8,10-tetraoxa-3,9-diphosphaspiro[5.5]undecane, 3,9-bis(diphenylmethyl)-3,9-dioxide]	◯	V-0 (When all the test samples self-extinguish within 10 seconds after the flame is removed, the total of ten burn times is no longer than 50 seconds, and samples do not drip flaming particles or these particles do not cause the ignition of cotton, flame retardancy is rated V-0)	◯	◯	V-2 (when all the test samples self-extinguish within 30 seconds after the flame is removed, the total of 10 burn times is no longer than 250 seconds, and the test samples drips flaming particles which cause the ignition of cotton, flame retardancy is rated V-2)		
Cc1cccc(C)c1OP(=O)(Oc1cccc(OP(=O)(Oc2c(C)cccc2C)Oc2c(C)cccc2C)c1)Oc1c(C)cccc1C [PX-200]						X	Not V

Source: patent US10919923B2, “Organic phosphorus-based compound, and flame retardant and flame-retardant product comprising the same” (TEIJIN LIMITED, priority 2016, dated 2021)
